This experiment can be described thus: IkB Signaling. The note with it: ABC-DLBCL IkBa-CBG/CBR dual luciferase ratio (green luciferase fused to IkBa over red control in OCI-Ly3 lymphoma cells), 4 h. The method in brief: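 Luminescence ratio of IκBα-fused green versus native red beetle luciferase in OCI-Ly3 cells, 4 h post-doxycycline with compound; red signal alone, scaled from basal (0%) to zero light (-100%), flagged nonspecific or cytotoxic effects.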
[1] abbreviates: measured here: control luc red channel unless noted.

Some of the results follow. Further columns of the screen follow, without active or inactive calls. Compounds called inactive in the main read-out are mostly missing here. The note in brackets gives the kind of curve behind each potency; many fits are weak.

With `O=S(=O)(c1cccc2cnccc12)N1CCNCC1`, the AC50 (in general, the concentration at which the activity in the assay is half-maximal) under setting [1] is 5.01 µM [falling, full curve].

For `Cc1ccc(CNC(=O)CN(c2cccc(C)c2C)S(=O)(=O)c2ccccc2)cc1`, the AC50 under setting [1] is 20 µM [falling, partial curve].

`CCCCNc1ccc(-c2nc(-c3ccco3)no2)cc1[N+](=O)[O-]`: the AC50 under setting [1] was 12.6 µM [falling, partial curve].

As for `CCOC(=O)c1c(-c2ccc(C)cc2)csc1NC(=O)c1cc(-c2ccc(C)c(F)c2)on1`, under setting [1], the AC50 was 25.1 µM [falling, single point].

As to `CC(=O)c1cccc(NC(=O)C2CCCN(C(=O)c3cnn(-c4ccccc4)c3-n3cccc3)C2)c1` (stereo not given), the AC50 under setting [1] is 25.1 µM [falling, single point].

As for `COc1ccc(-c2nc(SCC(=O)Nc3ccc4c(c3)OCCO4)c(-c3ccc(F)cc3)[nH]2)cc1OC`, the AC50 under setting [1] is 10 µM [falling, partial curve].

Regarding `O=C(c1ccc2c(c1)N(Cc1ccc(F)cc1)C(=O)c1ccccc1S2(=O)=O)N1CCN(Cc2ccccc2)CC1`, the AC50 under setting [1] was 12.6 µM [falling, partial curve].

On to `CCOC(=O)C1CCN(C(=O)Cn2ncc3c4ccccc4n(Cc4ccc(F)cc4)c3c2=O)CC1`, for which the AC50 under setting [1] was 12.6 µM [falling, partial curve].

For the compound `CC(C)(C)C(=O)Cn1c(=O)n(-c2ccccc2)c(=O)c2c3c(sc21)CCC3`, the AC50 under setting [1] is 0.1 µM [rising, full curve].

For the compound `Cc1nn(-c2ccccc2)c2nc(-c3ccncc3)cc(C(=O)NCc3ccco3)c12`, the AC50 under setting [1] was 20 µM [falling, single point].

Take `Cc1cc(NC(=O)CSc2ncc(C(=O)Nc3ccc(Cl)cc3)c(=O)n2C)no1`: under setting [1], the AC50 is 3.98 µM [falling, single point].

Regarding `Cc1sc(NC(=O)c2ccco2)nc1-c1ccc2c(c1)CC(C)N2C(=O)C1CC1` (stereo not given), the AC50 is 7.94 µM [falling, partial curve] (measured here: IkB-luc green channel) and 2.51 µM [falling, full curve] (measured here: control luc red channel).

For the compound `O=C(NC1CCCC1)c1ccc2c(c1)N(Cc1ccccc1)C(=O)c1ccccc1S2`, the AC50 under setting [1] was 15.8 µM [falling, partial curve].

In the case of `CC1CCN(c2nc3ccc(C(=O)NCc4ccccc4Cl)cc3s2)CC1`, the AC50 under setting [1] was 3.98 µM [falling, partial curve].

Consider `COc1ccc(C2=C(N3CCN(c4cccc(C)c4)C(C)C3)c3ccccc3C2=O)cc1` (stereo not given), for which the AC50 under setting [1] was 12.6 µM [falling, single point].

For `CCOc1nc(C#N)nc(N2CCCCC2)n1`, the AC50 under setting [1] was 2.51 µM [falling, partial curve].

Consider `COc1cc2ncc(C(=O)c3ccc(C)cc3)c(N3CCCCC3)c2cc1OC`, for which the AC50 under setting [1] was 39.8 µM [falling, single point].

In the case of `NCCCCNCCCN`, the AC50 under setting [1] is 39.8 µM [rising, partial curve] [measured here: IkB-luc green channel].

Regarding `Cc1cccn2c(=O)c(C(=O)NCCc3ccccc3)cnc12`, under setting [1], the AC50 is 15.8 µM [falling, partial curve].

For `COc1ccc(CNCCC(c2ccc3c(c2)OCO3)c2ccccc2OC)cc1` (stereo not given), under setting [1], the AC50 was 25.1 µM [falling, partial curve].

Regarding `Cc1cccc(NC(=O)COc2ccc(-c3nn(C)c(=O)c4ccccc34)cc2)c1`, the AC50 under setting [1] was 39.8 µM [falling, single point].

For the compound `COC(=O)c1ccccc1NC(=O)CSc1nc(=O)cc(N)n1-c1ccccc1`, the AC50 under setting [1] is 7.94 µM [falling, partial curve].

For the compound `COc1cc(OC)c(NC(=O)CN2CCCN(Cc3ccccc3C)S2(=O)=O)cc1Cl`, the AC50 under setting [1] was 15.8 µM [rising, partial curve].

Turning to `N#Cc1ccc(OCc2nnc(SCC(=O)N3CCCc4ccccc43)n2-c2ccccc2)cc1`, under setting [1], the half-maximal activity concentration (AC50) is 25.1 µM [falling, partial curve].

For `Cc1ccccc1C(=O)Nc1c(C)nc2ccccn2c1=O`, the AC50 under setting [1] is 0.501 µM [rising, partial curve, poor fit].

For the compound `Cc1cc(Cl)cc2c1NC(=O)[C@]21[C@@H]2C(=O)N(Cc3ccccc3)C(=O)[C@@H]2[C@@H]2CCCN21`, the AC50 under setting [1] is 10 µM [falling, partial curve].

For the compound `Cn1c(=O)oc2cc(S(=O)(=O)N3CCCC(C(=O)NCCc4ccccc4)C3)ccc21` (stereo not given), the AC50 under setting [1] was 15.8 µM [falling, partial curve].

`Cc1ccc(CNC(=O)c2c[nH]n3c(=O)c(Cc4ccc(Cl)cc4)c(C)nc23)cc1`: the AC50 under setting [1] is 12.6 µM [falling, partial curve].

Turning to `CCC1SC(=NC(=O)c2ccc(Cl)c(Cl)c2)NC1=O` (stereo not given), under setting [1], the AC50 was 10 µM [falling, partial curve].

On to `CCc1ccc(S(=O)(=O)c2cn(Cc3ccccc3F)c3cc(OC)c(OC)cc3c2=O)cc1`, for which, under setting [1], the AC50 was 15.8 µM [falling, partial curve].

In the case of `COc1ccc(NC(=O)CSc2nnc(NC(=O)NC3CCCCC3)s2)cc1OC`, the AC50 under setting [1] was 15.8 µM [falling, partial curve].

Turning to `Cc1ccc(CCNC(=O)c2c3c(nc4ccccc24)C(=O)N(C2CCCCC2)C3)cc1`, the AC50 under setting [1] was 39.8 µM [falling, partial curve].

Take `O=C(OC[C@@H](O)CO)c1ccccc1Nc1ccnc2cc(Cl)ccc12`: the AC50 under setting [1] is 3.16 µM [rising, full curve].

As to `O=C(Nc1ccc2oc(-c3ccncc3)nc2c1)c1ccccc1Cl`, the AC50 under setting [1] was 12.6 µM [falling, partial curve].

On to `CCCCS(=O)(=O)/C=C\C=C/S(=O)(=O)CCCC`, for which, under setting [1], the AC50 is 3.98 µM [falling, full curve].

Regarding `COc1cccc(NC(=O)c2ccc(-c3nc(COc4ccccc4)c(C)o3)cc2)c1`, the AC50 under setting [1] was 15.8 µM [rising, partial curve, poor fit].

As to `O=C(OCc1cc(=O)n2nc(C3CCCCC3)sc2n1)c1ccc(F)cc1`, the AC50 under setting [1] was 1 µM [rising, full curve].

As to `CCOc1ccc(-n2cc(-c3ccccc3)c3c(N4CCN(c5ccccc5OC)CC4)ncnc32)cc1`, the AC50 under setting [1] is 25.1 µM [falling, partial curve].

With `O=c1cc(-c2ccc(O)c(O)c2)oc2cc(O)cc(O)c12`, the AC50 under setting [1] was 12.6 µM [falling, partial curve].

Source of the values: PubChem BioAssay AID445 (National Center for Advancing Translational Sciences (NCATS), 2006).
